In this assay the target is T1, neoculin basic subunit (NBS), wild type (Curculigo latifolia) (UniProt P19667).
T1 sequence: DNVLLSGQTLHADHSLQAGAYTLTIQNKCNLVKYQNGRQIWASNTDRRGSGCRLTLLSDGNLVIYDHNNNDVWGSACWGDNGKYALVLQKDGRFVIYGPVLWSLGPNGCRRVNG
Kind of assay: reconstitution of the heterodimer by refolding, seen by NMR spectra; isotopically labelled subunit refolded in the presence of its unlabelled counterpart; NMR in 20 mM sodium citrate, pH 3-7, 37°C, 0.03-0.3 mM protein.

Results are given in words; binding and its absence hold for the method and conditions named. Some results given as binding are weak or reduced against the parent protein; the word gives no strength.

B1: neoculin acidic subunit (NAS), wild type (protein, UniProt Q6F495 23-135)
chain: DSVLLSGQTLYAGHSLTSGSYTLTIQNNCNLVKYQHGRQIWASDTDGQGSQCRLTLRSDGNLIIYDDNNMVVWGSDCWGNNGTYALVLQQDGLFVIYGPVLWPLGLNGCRSLN
For B1, the binding entry was “binds”.

Values taken from article PMC4542694.
